Experimental data as given in the supplement of paper PMC4862054.
Small differences around the control level are noise.

Assays:
Experiment in all cases: normalised response (% of control), CellTox Green; higher = less cell death (100 = DMSO, 0 = benzethonium chloride kill control)
Conditions in all cases: incubation time: 72 h
[1] = tested on: BT-474
Method: (§1)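 DSRT, 72 h incubation, CellTox Green / CellTiter-Glo readout. Signal is normalised to DMSO and benzethonium chloride controls. Value is the normalised response at the lowest tested concentration.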

[2] = tested on: BT-549
Method: as §1

[3] = tested on: CAL-120
Method: as §1

[4] = tested on: CAL-148
Method: as §1

[5] = tested on: CAL-51
Method: as §1

[6] = tested on: CAL-85-1
Method: as §1

[7] = tested on: DU-4475
Method: as §1

[8] = tested on: HCC1143
Method: as §1

[9] = tested on: HCC1599
Method: as §1

[10] = tested on: HDQ-P1
Method: as §1

[11] = tested on: MCF-10A
Method: as §1

[12] = tested on: MDA-MB-231
Method: as §1

[13] = tested on: MDA-MB-436
Method: as §1

[14] = tested on: MDA-MB-453
Method: as §1

[15] = tested on: MDA-MB-468
Method: as §1

[16] = tested on: MFM-223
Method: as §1

[17] = tested on: Hs578T
Method: as §1

[18] = tested on: BT-474; remark: listed apart in the source
Method: (§2)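 DSRT, 72 h incubation, CellTox Green / CellTiter-Glo readout. Signal is normalised to DMSO and benzethonium chloride controls. Value is the normalised response at dose 2.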

[19] = tested on: BT-549; remark: listed apart in the source
Method: as §2

[20] = tested on: CAL-120; remark: listed apart in the source
Method: as §2

[21] = tested on: CAL-148; remark: listed apart in the source
Method: as §2

[22] = tested on: CAL-51; remark: listed apart in the source
Method: as §2

[23] = tested on: CAL-85-1; remark: listed apart in the source
Method: as §2

[24] = tested on: DU-4475; remark: listed apart in the source
Method: as §2

[25] = tested on: HCC1143; remark: listed apart in the source
Method: as §2

[26] = tested on: HCC1599; remark: listed apart in the source
Method: as §2

[27] = tested on: HDQ-P1; remark: listed apart in the source
Method: as §2

[28] = tested on: Hs578T; remark: listed apart in the source
Method: as §2

[29] = tested on: MCF-10A; remark: listed apart in the source
Method: as §2

[30] = tested on: MDA-MB-231; remark: listed apart in the source
Method: as §2

[31] = tested on: MDA-MB-453; remark: listed apart in the source
Method: as §2

[32] = tested on: MDA-MB-468; remark: listed apart in the source
Method: as §2

[33] = tested on: MFM-223; remark: listed apart in the source
Method: as §2

[34] = tested on: MDA-MB-436; remark: listed apart in the source
Method: as §2

Row | SMILES | normalised response [1] [%] | normalised response [2] [%] | normalised response [3] [%] | normalised response [4] [%] | normalised response [5] [%] | normalised response [6] [%] | normalised response [7] [%] | normalised response [8] [%] | normalised response [9] [%] | normalised response [10] [%] | normalised response [11] [%] | normalised response [12] [%] | normalised response [13] [%] | normalised response [14] [%] | normalised response [15] [%] | normalised response [16] [%] | normalised response [17] [%] | normalised response [18] [%] | normalised response [19] [%] | normalised response [20] [%] | normalised response [21] [%] | normalised response [22] [%] | normalised response [23] [%] | normalised response [24] [%] | normalised response [25] [%] | normalised response [26] [%] | normalised response [27] [%] | normalised response [28] [%] | normalised response [29] [%] | normalised response [30] [%] | normalised response [31] [%] | normalised response [32] [%] | normalised response [33] [%] | normalised response [34] [%]
1 | Cc1c(N)nc([C@H](CC(N)=O)NC[C@H](N)C(N)=O)nc1C(=O)N[C@H](C(=O)N[C@H](C)[C@@H](O)[C@H](C)C(=O)N[C@H](C(=O)NCCc1nc(-c2nc(C(=O)NCCC[S+](C)C)cs2)cs1)[C@@H](C)O)[C@@H](OC1OC(CO)C(O)C(O)C1OC1OC(CO)C(O)C(OC(N)=O)C1O)c1cnc[nH]1 (some centres not stated) [Bleomycin] (1 nM) | 99.1 | 101 | 98.4 | 99.9 | 99.6 | 103 | 99.7 | 117 | 103 | 56.8 | 103 | 96.8 | 86.8 | 101 | 108 | 95.4 |  |  |  |  |  |  |  |  |  |  |  |  |  |  |  |  |  | 
2 | CO[C@H]1C[C@@H]2CC[C@@H](C)[C@@](O)(O2)C(=O)C(=O)N2CCCC[C@H]2C(=O)O[C@H]([C@H](C)C[C@@H]2CC[C@@H](OP(C)(C)=O)[C@H](OC)C2)CC(=O)[C@H](C)/C=C(\C)[C@@H](O)[C@@H](OC)C(=O)[C@H](C)C[C@H](C)/C=C/C=C/C=C/1C [Ridaforolimus] (0.01 nM) | 101 | 85.1 | 98.3 | 103 | 132 | 111 | 100 | 124 | 89.5 |  | 105 | 96.5 | 60.9 | 96.9 | 81.8 | 102 | 113 |  |  |  |  |  |  |  |  |  |  |  |  |  |  |  |  | 
3 | CN[C@@H]1C[C@H]2O[C@@](C)([C@@H]1OC)n1c3ccccc3c3c4c(c5c6ccccc6n2c5c31)C(=O)N[C@H]4O [UCN-01] (10 nM) |  |  |  |  |  |  |  |  |  |  |  |  |  |  |  |  |  | 102 | 93.8 | 101 | 104 | 98.1 | 93.2 | 109 | 117 | 105 | 95.2 | 91.7 | 65.6 | 79.6 | 99.7 | 64.4 | 96.7 | 
4 | NS(=O)(=O)OC[C@@H]1C[C@@H](n2ccc3c(N[C@H]4CCc5ccccc54)ncnc32)C[C@@H]1O [Pevonedistat] (1 nM) | 102 | 110 | 106 | 91.5 | 107 | 105 | 113 | 128 | 118 | 108 | 109 | 114 | 97.9 | 104 | 70.8 | 99.3 | 120 |  |  |  |  |  |  |  |  |  |  |  |  |  |  |  |  | 
5 | CCN1CCN(c2ccc(Nc3cc(N(C)C(=O)Nc4c(Cl)c(OC)cc(OC)c4Cl)ncn3)cc2)CC1 [NVP-BGJ398] (0.1 nM) | 97.7 | 96.8 | 105 |  | 86.4 | 96.8 | 98.3 | 66.8 | 98.7 | 95 | 80.3 | 96.6 | 83.1 | 85 | 122 | 95.6 | 109 |  |  |  |  |  |  |  |  |  |  |  |  |  |  |  |  | 
6 | C#Cc1cccc(Nc2ncnc3cc(OC)c(OCCCCCCC(=O)NO)cc23)c1 [CUDC-101] (1 nM) | 104 | 101 | 98 |  | 112 | 101 | 101 | 76.1 | 107 | 108 | 61.4 | 85.5 |  | 115 | 86.4 | 95.5 | 90.5 |  |  |  |  |  |  |  |  |  |  |  |  |  |  |  |  | 
7 | CC(C)C[C@H](NC(=O)[C@H](CCc1ccccc1)NC(=O)CN1CCOCC1)C(=O)N[C@@H](Cc1ccccc1)C(=O)N[C@@H](CC(C)C)C(=O)[C@@]1(C)CO1 [Carfilzomib] (0.1 nM) | 103 | 95 | 102 | 106 | 124 | 100 | 101 | 68.3 | 99.5 | 95.6 | 98.7 | 110 |  | 111 | 98.8 | 103 |  |  |  |  |  |  |  |  |  |  |  |  |  |  |  |  |  | 
8 | O=C(O)c1ccc(-c2c[nH]c3ncc(-c4ccccc4)cc23)cc1C1CCCC1 (10 nM) |  |  |  |  |  |  |  |  |  |  |  |  |  |  |  |  |  | 97.8 | 80.2 | 98.2 | 104 | 93.8 | 104 | 93.1 | 91.2 | 95.2 | 88.4 |  | 91.7 | 91.7 | 96.2 | 85.5 | 101 | 72
